The results in this text go back to publication PMC4811778 (eLife, 2016).

These are yes or no findings as the source states them, for the method shown. Binding seen in cells or lysates may run through a third protein. Some entries that bind do so weakly or less than the wild type. For part of these data: Tags and fused reporters may be left off the sequences shown.

Experiment [1] has as its target T1, exosome catalytic subunit Rrp44 (Saccharomyces cerevisiae) (UniProt Q08162).
T1 sequence: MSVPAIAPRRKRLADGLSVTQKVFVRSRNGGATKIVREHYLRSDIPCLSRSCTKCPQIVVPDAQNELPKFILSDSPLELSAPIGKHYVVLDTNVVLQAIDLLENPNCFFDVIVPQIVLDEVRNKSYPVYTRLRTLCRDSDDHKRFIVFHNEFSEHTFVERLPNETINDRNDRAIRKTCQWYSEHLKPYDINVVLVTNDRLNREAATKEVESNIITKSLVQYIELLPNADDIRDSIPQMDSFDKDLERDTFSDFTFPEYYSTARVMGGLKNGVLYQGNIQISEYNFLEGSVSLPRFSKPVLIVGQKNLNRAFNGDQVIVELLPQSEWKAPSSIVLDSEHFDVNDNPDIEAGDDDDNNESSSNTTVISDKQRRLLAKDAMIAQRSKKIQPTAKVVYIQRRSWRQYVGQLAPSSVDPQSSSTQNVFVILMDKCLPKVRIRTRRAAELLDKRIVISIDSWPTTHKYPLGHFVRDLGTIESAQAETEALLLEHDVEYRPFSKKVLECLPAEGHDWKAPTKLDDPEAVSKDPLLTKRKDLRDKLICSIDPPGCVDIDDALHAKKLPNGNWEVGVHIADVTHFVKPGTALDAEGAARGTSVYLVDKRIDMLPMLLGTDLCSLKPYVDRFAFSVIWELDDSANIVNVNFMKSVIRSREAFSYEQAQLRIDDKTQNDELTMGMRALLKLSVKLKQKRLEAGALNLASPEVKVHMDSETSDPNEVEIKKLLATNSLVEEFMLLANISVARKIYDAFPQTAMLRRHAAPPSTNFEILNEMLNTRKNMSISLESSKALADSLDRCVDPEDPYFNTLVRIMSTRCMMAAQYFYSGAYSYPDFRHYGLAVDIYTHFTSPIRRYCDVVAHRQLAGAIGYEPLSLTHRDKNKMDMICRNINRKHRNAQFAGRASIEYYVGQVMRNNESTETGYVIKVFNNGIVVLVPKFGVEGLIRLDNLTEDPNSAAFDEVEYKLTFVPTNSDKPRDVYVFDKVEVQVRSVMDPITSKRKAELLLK
Kind of experiment: cross-linking; crude Rrp46 immunoprecipitate eluted off IgG beads, 20 mM HEPES pH 8.0, 150 mM NaCl, 40 µg protein treated with Leiker (bAL2) at RT for 1 hr; streptavidin enrichment, LC-MS/MS, pLink.

Experiment [2] has as its target T2, exosome subunit Rrp4 (Saccharomyces cerevisiae) (UniProt P38792).
T2 sequence: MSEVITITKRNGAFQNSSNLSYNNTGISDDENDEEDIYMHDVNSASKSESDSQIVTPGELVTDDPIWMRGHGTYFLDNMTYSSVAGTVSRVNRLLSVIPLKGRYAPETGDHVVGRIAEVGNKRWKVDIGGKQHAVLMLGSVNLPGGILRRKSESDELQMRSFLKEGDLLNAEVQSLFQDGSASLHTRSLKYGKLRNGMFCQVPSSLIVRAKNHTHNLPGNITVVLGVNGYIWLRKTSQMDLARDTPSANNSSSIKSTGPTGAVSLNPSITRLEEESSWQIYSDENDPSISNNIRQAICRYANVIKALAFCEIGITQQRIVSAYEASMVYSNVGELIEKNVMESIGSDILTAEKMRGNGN
The description is as above.

The target in experiment [3] is T3, TAP-tagged yeast exosome subunit Rrp46 (Saccharomyces cerevisiae) (UniProt P53256).
T3 sequence: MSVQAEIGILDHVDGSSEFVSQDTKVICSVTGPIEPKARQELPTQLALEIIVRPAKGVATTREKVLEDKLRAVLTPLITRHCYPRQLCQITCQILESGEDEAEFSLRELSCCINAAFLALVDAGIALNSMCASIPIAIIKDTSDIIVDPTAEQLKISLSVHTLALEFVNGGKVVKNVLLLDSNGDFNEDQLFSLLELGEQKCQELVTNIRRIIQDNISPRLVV
The experiment is described as above.

A further experiment addresses T4, ElaB (E. coli) (UniProt P0AEH5).
T4 sequence: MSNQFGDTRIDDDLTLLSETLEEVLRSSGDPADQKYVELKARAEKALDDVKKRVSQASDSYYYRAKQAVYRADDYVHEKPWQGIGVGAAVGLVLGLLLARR
As to the kind of experiment: cross-linking; quantitative CXMS: log phase and stationary phase E. coli (MG1665) lysates (100 µg each, 50 mM HEPES pH 8.0, 150 mM NaCl) cross-linked with [d0]-/[d6]-bAL2 at RT for 1 hr, forward and reverse labelling; pLink, pQuant.

B1: translation initiation factor Tif1 (protein, UniProt P10081 1-395)
chain: MSEGITDIEESQIQTNYDKVVYKFDDMELDENLLRGVFGYGFEEPSAIQQRAIMPIIEGHDVLAQAQSGTGKTGTFSIAALQRIDTSVKAPQALMLAPTRELALQIQKVVMALAFHMDIKVHACIGGTSFVEDAEGLRDAQIVVGTPGRVFDNIQRRRFRTDKIKMFILDEADEMLSSGFKEQIYQIFTLLPPTTQVVLLSATMPNDVLEVTTKFMRNPVRILVKKDELTLEGIKQFYVNVEEEEYKYECLTDLYDSISVTQAVIFCNTRRKVEELTTKLRNDKFTVSAIYSDLPQQERDTIMKEFRSGSSRILISTDLLARGIDVQQVSLVINYDLPANKENYIHRIGRGGRFGRKGVAINFVTNEDVGAMRELEKFYSTQIEELPSDIATLLN
With B1, the binding result in experiment [1] and in experiment [2] was “binds” throughout.

B2: exosome subunit Rrp41 (protein, UniProt P46948 1-246)
chain: MSRLEIYSPEGLRLDGRRWNELRRFESSINTHPHAADGSSYMEQGNNKIITLVKGPKEPRLKSQMDTSKALLNVSVNITKFSKFERSKSSHKNERRVLEIQTSLVRMFEKNVMLNIYPRTVIDIEIHVLEQDGGIMGSLINGITLALIDAGISMFDYISGISVGLYDTTPLLDTNSLEENAMSTVTLGVVGKSEKLSLLLVEDKIPLDRLENVLAIGIAGAHRVRDLMDEELRKHAQKRVSNASAR
B2: in experiment [3], the binding entry is “binds”.

B3: exosome subunit Rrp45 (protein, UniProt Q05636 1-305)
chain: MAKDIEISASESKFILEALRQNYRLDGRSFDQFRDVEITFGKEFGDVSVKMGNTKVHCRISCQIAQPYEDRPFEGLFVISTEISPMAGSQFENGNITGEDEVLCSRIIEKSVRRSGALDVEGLCIVAGSKCWAVRADVHFLDCDGGFIDASCIAVMAGLMHFKKPDITVHGEQIIVHPVNEREPVPLGILHIPICVTFSFFNPQDTEENIKGETNSEISIIDATLKEELLRDGVLTVTLNKNREVVQVSKAGGLPMDALTLMKCCHEAYSIIEKITDQILQLLKEDSEKRNKYAAMLTSENAREI
For the molecule B3, the binding result in experiment [3] is recorded as “binds”.

B4: Ski7 (protein, UniProt Q08491 1-747)
chain: MSLLEQLARKRIEKSKGLLSADQSHSTSKSASLLERLHKNRETKDNNAETKRKDLKTLLAKDKVKRSDFTPNQHSVSLSLKLSALKKSNSDLEKQGKSVTLDSKENELPTKRKSPDDKLNLEESWKAIKEMNHYCFLKNDPCINQTDDFAFTNFIIKDKKNSLSTSIPLSSQNSSFLSLKKHNNELLGIFVPCNLPKTTRKVAIENFNRPSPDDIIQSAQLNAFNEKLENLNIKSVPKAEKKEPINLQTPPTESIDIHSFIATHPLNLTCLFLGDTNAGKSTLLGHLLYDLNEISMSSMRELQKKSSNLDPSSSNSFKVILDNTKTERENGFSMFKKVIQVENDLLPPSSTLTLIDTPGSIKYFNKETLNSILTFDPEVYVLVIDCNYDSWEKSLDGPNNQIYEILKVISYLNKNSACKKHLIILLNKADLISWDKHRLEMIQSELNYVLKENFQWTDAEFQFIPCSGLLGSNLNKTENITKSKYKSEFDSINYVPEWYEGPTFFSQLYLLVEHNMNKIETTLEEPFVGTILQSSVLQPIAEINYVSLKVLINSGYIQSGQTIEIHTQYEDFHYYGIVSRMKNSKQILETNTKNNISVGLNPDILEVLVKIHNTEDFTKKQFHIRKGDIIIHSRKTNTLSPNLPNTLKLLALRLIKLSIQTHALSDPVDLGSELLLYHNLTHNAVKLVKILGTNDISINPNQSLIVEVEIIEPDFALNVIDSKYITNNIVLTSIDHKVIAVGRIACQ
For the molecule B4, the binding entry in experiment [2] is reported as “binds”.

B5: YqjD (natural protein, E. coli, UniProt P64581 1-101, looked up)
chain: MSKEHTTEHLRAELKSLSDTLEEVLSSSGEKSKEELSKIRSKAEQALKQSRYRLGETGDAIAKQTRVAAARADEYVRENPWTGVGIGAAIGVVLGVLLSRR
notes: source: endogenous, E. coli (MG1665) lysate, log phase and stationary phase
Take B5: the binding result with ElaB (E. coli) is reported as “binds”.
